Test results reported in publication PMC8591358.

Target: GST-MUC1-CD (aa1–72) (human)
Experiment: pull-down; GST-MUC1-CD (aa1-72) immobilized on glutathione-agarose beads, incubated with A549 cell lysates; c-Src, EGFR or γ-catenin immunoblot; only the target purified

B1: γ-catenin, endogenous in A549 cells (protein, UniProt P14923 1-745)
chain: MEVMNLMEQPIKVTEWQQTYTYDSGIHSGANTCVPSVSSKGIMEEDEACGRQYTLKKTTTYTQGVPPSQGDLEYQMSTTARAKRVREAMCPGVSGEDSSLLLATQVEGQATNLQRLAEPSQLLKSAIVHLINYQDDAELATRALPELTKLLNDEDPVVVTKAAMIVNQLSKKEASRRALMGSPQLVAAVVRTMQNTSDLDTARCTTSILHNLSHHREGLLAIFKSGGIPALVRMLSSPVESVLFYAITTLHNLLLYQEGAKMAVRLADGLQKMVPLLNKNNPKFLAITTDCLQLLAYGNQESKLIILANGGPQALVQIMRNYSYEKLLWTTSRVLKVLSVCPSNKPAIVEAGGMQALGKHLTSNSPRLVQNCLWTLRNLSDVATKQEGLESVLKILVNQLSVDDVNVLTCATGTLSNLTCNNSKNKTLVTQNSGVEALIHAILRAGDKDDITEPAVCALRHLTSRHPEAEMAQNSVRLNYGIPAIVKLLNQPNQWPLVKATIGLIRNLALCPANHAPLQEAAVIPRLVQLLVKAHQDAQRHVAAGTQQPYTDGVRMEEIVEGCTGALHILARDPMNRMEIFRLNTIPLFVQLLYSSVENIQRVAAGVLCELAQDKEAADAIDAEGASAPLMELLHSRNEGTATYAAAVLFRISEDKNPDYRKRVSVELTNSLFKHDPAAWEAAQSMIPINEPYGDDMDATYRPMYSSDVPLDPLEMHMDMDGDYPIDTYSDGLRPPYPTADHMLA
- binding: binds

Results are given in words; binding and its absence hold for the method and conditions named. Binding seen in cells or lysates may run through a third protein. A result given as binding can be weak or reduced; the word gives no strength.
